Consider four molecules from patent US20180072806A1 (SHIRE HUMAN GENETIC THERAPIES, published 2018).

Chains of the proteins cited; added tags and fusions are not shown. Lines headed by an entry give the natural chain unless they say otherwise; changes in a name come on top.
UniProt P17948: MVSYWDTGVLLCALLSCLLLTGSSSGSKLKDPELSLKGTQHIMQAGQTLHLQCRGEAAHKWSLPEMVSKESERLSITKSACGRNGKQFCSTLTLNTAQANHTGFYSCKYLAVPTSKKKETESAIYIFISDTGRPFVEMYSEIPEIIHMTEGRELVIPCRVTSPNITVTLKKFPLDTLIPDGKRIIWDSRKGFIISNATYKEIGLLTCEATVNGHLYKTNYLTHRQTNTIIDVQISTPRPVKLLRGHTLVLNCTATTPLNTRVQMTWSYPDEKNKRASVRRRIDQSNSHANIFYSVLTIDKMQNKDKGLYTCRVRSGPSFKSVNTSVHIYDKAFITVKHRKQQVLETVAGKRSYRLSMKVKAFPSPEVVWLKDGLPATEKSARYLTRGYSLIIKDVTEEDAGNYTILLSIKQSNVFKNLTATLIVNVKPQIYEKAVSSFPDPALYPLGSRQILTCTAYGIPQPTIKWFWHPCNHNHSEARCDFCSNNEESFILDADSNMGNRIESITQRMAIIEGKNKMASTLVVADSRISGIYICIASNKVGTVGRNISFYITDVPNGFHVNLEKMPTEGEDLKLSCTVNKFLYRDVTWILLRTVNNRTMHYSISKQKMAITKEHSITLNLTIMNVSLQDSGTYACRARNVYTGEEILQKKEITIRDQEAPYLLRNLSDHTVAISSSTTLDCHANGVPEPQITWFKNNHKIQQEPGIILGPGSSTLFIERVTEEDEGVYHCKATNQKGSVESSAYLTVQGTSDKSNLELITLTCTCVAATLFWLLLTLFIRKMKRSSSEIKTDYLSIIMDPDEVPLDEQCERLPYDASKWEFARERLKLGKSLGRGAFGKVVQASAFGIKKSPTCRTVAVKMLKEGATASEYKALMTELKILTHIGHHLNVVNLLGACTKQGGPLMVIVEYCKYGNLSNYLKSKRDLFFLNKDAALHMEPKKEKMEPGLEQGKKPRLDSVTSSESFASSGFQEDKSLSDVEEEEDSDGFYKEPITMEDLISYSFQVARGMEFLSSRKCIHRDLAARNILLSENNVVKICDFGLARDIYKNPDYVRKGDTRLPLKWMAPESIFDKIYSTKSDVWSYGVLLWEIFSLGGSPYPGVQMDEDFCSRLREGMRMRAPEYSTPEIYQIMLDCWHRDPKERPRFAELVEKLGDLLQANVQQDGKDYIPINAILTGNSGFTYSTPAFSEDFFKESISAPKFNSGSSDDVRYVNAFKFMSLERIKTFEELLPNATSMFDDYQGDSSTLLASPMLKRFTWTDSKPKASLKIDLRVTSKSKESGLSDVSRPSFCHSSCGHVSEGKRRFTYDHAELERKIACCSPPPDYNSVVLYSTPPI

Numbering of substitutions follows the chain as printed. Results are given in words; binding and its absence hold for the method and conditions named. Some results given as binding are weak or reduced against the parent protein; the word gives no strength.

Test [1] has as its target T1, recombinant human soluble Flt-1 (human, UniProt P17948 27-758).
T1 construct: Recombinant soluble form (immunogen bought from ABCAM); also called human sFlt-1; sFlt-1
The experiment in a line: human competition ELISA with human sFlt-1 and VEGF; blocked ligand VEGF; antibody titrated.

The target of test [2] is T1, recombinant human soluble Flt-1. Put plainly: size exclusion chromatography of the mixture.
The target is the same in test [3]. The experiment in a line: VEGF:sFlt1 binding assay (competition ELISA); blocked ligand VEGF; antibody titrated.

B1: anti-Flt-1 antibody 21B3 (antibody, V domains shown)
VH: ELQLVESGGGLVQPGGSLRLSCAASGFTFRDYSMSWVRQAPGKGLEWVSAISWNGDSTYYAESMKGRFTISRDNAKNTLYLQMNSLKSEDTAVYYCAKSWATPIESLYYYGMDYWGKGTLVTVSS
VL: SYELTQSPSVSVALRQTAKITCGGNNIGSQTAQWYQQKPGQAPVLVIYANNRRPSGIPERFSGSKSGNTATLTISGAQAEDEADYYCQVWDGSTQAIVFGGGTHLTVL
notes: VL is LC_21B3; IgG with wild-type Fc; also called 21B3 WT; clone 21B3
Turning to B1, the binding entry in test [1] and in test [2] was “binds” in each case.

B2: anti-Flt-1 antibody 27H9 (antibody, human IgG1, lambda, V domains shown)
VH: B1 VH with L2V, V5L, M64A, A75S, K87R, S88A, M112S, K117Q
VL: SYELTQPLSVSVALRQTARITCGGNNIGSQTAQWYQQKPGQAPVLVIYANNRRPSGIPERFSGSKSGNTATLTISRAQAEDEADYYCQVWDESTQAIVFGGGTKLTVLG
notes: also called 27H9 WT; 27H9 WT 23/07
As for B2, the binding result in test [3] is reported as “binds”.

B3: anti-Flt-1 antibody 27H6 (antibody, human IgG1, lambda, V domains shown)
VH: B1 VH with R30S, M34A, N54S, M64V, S71F, A75S, K87R, S88A, M112S, K117Q
VL: B2 VL with T17A, R19K, E80G, E92G
As to B3, the binding entry in test [3] is recorded as “binds”.

B4: anti-Flt-1 antibody 27H4 (antibody, human IgG1, lambda, V domains shown)
VH: B1 VH with M64L, K87R, S88A, M112S, K117Q
VL: B2 VL with R15G, D91E, E92D
Regarding B4, the binding entry in test [3] is recorded as “binds”.
